The target in test [1] is T1, SA2 (Stromalin Antigen 2, STAG2) (human (endogenous in HCT116 and HeLa)) (UniProt Q8N3U4).
T1 sequence: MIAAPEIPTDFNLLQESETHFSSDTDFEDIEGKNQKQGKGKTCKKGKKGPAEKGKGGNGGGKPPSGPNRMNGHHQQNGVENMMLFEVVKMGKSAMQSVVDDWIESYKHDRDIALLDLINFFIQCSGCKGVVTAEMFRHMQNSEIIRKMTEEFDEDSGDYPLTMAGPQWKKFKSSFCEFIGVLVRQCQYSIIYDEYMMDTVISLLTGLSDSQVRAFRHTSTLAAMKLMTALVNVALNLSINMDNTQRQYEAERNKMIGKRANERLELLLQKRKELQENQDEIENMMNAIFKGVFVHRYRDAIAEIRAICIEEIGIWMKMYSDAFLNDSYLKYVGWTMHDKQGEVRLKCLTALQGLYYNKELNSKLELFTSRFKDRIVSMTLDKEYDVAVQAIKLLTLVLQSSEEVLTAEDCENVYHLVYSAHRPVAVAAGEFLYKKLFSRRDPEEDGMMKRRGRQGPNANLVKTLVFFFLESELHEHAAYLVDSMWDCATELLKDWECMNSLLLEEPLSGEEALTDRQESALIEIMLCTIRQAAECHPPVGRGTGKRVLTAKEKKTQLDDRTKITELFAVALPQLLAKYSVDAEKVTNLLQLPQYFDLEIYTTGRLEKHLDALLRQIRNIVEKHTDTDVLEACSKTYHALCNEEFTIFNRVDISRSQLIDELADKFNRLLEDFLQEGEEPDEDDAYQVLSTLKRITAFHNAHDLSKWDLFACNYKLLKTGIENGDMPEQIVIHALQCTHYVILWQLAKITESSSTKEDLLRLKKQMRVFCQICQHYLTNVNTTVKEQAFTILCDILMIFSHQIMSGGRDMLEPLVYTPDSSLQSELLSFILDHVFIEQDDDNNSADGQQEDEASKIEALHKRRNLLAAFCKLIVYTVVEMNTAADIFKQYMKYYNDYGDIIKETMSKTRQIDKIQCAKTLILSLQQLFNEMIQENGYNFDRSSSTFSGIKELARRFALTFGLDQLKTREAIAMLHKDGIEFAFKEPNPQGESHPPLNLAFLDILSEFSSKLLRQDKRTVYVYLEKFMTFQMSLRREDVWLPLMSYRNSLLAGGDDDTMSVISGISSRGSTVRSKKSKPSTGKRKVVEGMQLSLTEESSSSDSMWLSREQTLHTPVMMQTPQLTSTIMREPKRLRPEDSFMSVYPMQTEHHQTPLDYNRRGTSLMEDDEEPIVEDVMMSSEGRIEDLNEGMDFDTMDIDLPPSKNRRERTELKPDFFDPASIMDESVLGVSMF
The experiment in a line: co-IP; chromatin co-IP of endogenous proteins from RAD21mAC HCT116 cells treated with EtOH (control) or IAA 4 h (RAD21 degraded); antibody on Protein A/G Dynabeads, 1 mg benzonase-treated chromatin extract, about 16 h at 4 °C, washes at 200 mM KCl; immunoblot.

Amino acid sequences for entries named in this document (tags omitted).
UniProt Q8TD26: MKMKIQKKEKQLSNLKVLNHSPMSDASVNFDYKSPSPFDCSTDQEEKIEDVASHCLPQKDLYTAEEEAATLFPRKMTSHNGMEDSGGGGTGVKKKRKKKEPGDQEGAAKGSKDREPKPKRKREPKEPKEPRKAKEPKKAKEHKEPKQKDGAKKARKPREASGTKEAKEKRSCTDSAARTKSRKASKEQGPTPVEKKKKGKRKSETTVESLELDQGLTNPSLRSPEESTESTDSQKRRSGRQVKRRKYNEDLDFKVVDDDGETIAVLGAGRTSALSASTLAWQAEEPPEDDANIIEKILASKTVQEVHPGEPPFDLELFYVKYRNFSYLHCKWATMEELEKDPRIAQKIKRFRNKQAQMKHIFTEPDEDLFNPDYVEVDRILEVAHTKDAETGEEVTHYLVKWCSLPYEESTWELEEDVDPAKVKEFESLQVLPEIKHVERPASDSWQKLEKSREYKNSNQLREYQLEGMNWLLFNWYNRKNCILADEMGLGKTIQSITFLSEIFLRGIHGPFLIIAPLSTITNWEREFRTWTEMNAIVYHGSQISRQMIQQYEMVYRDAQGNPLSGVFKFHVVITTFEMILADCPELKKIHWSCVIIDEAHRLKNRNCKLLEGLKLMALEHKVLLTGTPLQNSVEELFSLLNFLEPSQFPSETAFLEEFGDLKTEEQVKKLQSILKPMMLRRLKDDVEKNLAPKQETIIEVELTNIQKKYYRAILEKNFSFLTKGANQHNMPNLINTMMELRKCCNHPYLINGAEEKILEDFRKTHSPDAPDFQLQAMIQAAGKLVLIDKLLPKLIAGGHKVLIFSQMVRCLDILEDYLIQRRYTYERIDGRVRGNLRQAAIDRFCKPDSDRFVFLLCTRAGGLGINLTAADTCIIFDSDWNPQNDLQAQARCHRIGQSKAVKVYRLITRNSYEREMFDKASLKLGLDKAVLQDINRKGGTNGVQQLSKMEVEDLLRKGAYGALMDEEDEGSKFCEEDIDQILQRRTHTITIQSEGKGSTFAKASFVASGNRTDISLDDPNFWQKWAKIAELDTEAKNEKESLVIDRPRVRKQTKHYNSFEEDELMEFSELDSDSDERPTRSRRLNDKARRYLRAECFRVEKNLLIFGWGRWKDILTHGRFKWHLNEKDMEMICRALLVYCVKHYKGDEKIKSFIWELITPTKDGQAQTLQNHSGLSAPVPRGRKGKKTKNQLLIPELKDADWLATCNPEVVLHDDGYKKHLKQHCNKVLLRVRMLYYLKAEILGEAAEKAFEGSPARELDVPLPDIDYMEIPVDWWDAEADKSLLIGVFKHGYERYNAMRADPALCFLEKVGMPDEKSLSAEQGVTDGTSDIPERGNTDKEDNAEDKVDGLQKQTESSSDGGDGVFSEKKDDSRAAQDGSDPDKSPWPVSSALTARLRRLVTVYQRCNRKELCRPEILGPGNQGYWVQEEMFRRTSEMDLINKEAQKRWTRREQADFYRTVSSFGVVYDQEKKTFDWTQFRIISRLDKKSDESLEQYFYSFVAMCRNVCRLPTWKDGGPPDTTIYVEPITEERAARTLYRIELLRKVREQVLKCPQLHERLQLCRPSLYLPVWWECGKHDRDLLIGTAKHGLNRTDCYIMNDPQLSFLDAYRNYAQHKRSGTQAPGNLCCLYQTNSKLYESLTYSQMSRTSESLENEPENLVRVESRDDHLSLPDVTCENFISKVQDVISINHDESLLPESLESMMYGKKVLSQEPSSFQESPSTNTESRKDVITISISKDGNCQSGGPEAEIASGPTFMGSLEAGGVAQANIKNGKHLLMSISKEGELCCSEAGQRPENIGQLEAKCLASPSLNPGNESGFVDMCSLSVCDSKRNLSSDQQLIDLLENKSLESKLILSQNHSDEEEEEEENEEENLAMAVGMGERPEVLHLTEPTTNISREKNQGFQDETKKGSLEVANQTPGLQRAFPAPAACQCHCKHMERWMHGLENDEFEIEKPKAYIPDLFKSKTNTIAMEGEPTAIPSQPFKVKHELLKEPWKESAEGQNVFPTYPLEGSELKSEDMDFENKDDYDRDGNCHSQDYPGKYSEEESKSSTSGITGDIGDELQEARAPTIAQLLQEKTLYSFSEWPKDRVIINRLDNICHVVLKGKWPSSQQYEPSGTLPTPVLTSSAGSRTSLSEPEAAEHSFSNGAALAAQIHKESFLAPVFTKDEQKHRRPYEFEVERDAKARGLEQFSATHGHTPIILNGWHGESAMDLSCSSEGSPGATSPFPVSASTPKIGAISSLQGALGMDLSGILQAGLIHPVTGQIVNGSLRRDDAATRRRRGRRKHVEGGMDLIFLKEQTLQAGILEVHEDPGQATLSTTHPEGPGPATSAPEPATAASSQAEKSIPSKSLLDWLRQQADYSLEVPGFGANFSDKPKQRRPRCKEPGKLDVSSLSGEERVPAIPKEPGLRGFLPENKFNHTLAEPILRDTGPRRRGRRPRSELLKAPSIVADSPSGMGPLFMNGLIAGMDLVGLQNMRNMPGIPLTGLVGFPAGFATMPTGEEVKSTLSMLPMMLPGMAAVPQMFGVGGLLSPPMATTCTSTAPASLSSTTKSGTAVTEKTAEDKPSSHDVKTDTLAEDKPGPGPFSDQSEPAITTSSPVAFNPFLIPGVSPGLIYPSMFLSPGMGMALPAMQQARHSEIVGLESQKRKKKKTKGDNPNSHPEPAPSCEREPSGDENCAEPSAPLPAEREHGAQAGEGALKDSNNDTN
UniProt Q9NVI1: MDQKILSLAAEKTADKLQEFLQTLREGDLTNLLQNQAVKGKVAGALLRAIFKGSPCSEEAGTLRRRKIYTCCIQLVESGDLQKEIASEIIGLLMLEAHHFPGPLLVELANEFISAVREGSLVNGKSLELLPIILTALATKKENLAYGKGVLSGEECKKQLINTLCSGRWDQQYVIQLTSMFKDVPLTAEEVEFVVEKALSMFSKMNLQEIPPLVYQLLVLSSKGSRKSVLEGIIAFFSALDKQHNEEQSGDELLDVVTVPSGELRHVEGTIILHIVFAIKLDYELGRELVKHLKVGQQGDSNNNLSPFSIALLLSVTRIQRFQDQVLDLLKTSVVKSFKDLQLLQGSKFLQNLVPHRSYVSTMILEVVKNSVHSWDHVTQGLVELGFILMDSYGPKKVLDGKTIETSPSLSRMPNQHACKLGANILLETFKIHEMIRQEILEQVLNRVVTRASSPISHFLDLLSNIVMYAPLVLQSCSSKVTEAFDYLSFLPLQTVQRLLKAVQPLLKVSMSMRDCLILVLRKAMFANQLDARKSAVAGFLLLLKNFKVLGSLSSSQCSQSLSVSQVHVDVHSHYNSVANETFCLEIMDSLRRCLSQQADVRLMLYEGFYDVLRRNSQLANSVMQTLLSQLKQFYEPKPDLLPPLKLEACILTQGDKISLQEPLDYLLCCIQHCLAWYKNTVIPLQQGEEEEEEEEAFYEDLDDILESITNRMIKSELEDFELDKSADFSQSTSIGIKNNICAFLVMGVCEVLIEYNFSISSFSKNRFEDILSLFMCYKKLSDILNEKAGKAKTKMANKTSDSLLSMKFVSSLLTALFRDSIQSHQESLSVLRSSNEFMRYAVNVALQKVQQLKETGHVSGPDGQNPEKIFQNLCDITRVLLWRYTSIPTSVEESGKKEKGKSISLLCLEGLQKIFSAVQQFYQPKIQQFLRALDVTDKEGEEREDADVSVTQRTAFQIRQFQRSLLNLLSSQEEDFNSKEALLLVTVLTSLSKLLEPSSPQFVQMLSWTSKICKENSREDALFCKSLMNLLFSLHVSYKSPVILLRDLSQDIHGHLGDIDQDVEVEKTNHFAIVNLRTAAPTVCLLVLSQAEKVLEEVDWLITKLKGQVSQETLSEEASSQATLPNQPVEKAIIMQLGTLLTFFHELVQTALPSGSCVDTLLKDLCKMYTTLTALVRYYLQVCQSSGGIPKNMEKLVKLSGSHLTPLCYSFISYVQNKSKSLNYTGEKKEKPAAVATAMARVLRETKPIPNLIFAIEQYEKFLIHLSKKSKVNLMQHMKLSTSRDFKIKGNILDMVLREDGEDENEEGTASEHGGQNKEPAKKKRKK
UniProt Q08945: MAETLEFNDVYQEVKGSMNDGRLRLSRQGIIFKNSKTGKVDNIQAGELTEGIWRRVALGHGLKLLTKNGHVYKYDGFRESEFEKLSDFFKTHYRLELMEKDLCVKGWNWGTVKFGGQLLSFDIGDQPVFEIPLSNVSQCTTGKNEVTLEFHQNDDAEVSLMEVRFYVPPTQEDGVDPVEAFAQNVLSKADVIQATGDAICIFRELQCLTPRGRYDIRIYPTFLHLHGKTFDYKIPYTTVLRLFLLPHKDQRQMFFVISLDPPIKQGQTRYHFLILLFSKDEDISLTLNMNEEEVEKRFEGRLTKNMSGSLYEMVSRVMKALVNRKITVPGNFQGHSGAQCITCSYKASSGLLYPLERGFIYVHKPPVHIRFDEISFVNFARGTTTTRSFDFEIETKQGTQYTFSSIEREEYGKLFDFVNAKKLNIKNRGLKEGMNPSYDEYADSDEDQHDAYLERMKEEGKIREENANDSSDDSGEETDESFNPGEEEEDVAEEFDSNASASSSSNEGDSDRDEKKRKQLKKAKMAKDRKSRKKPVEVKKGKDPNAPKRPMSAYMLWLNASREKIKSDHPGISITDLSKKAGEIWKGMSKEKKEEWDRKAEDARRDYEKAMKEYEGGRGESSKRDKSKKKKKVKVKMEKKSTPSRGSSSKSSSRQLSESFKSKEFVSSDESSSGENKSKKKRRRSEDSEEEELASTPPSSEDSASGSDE

In test [2] the target is T2, SA1 (Stromalin Antigen 1, STAG1) (human (endogenous in HCT116 and HeLa)) (UniProt Q8WVM7).
T2 sequence: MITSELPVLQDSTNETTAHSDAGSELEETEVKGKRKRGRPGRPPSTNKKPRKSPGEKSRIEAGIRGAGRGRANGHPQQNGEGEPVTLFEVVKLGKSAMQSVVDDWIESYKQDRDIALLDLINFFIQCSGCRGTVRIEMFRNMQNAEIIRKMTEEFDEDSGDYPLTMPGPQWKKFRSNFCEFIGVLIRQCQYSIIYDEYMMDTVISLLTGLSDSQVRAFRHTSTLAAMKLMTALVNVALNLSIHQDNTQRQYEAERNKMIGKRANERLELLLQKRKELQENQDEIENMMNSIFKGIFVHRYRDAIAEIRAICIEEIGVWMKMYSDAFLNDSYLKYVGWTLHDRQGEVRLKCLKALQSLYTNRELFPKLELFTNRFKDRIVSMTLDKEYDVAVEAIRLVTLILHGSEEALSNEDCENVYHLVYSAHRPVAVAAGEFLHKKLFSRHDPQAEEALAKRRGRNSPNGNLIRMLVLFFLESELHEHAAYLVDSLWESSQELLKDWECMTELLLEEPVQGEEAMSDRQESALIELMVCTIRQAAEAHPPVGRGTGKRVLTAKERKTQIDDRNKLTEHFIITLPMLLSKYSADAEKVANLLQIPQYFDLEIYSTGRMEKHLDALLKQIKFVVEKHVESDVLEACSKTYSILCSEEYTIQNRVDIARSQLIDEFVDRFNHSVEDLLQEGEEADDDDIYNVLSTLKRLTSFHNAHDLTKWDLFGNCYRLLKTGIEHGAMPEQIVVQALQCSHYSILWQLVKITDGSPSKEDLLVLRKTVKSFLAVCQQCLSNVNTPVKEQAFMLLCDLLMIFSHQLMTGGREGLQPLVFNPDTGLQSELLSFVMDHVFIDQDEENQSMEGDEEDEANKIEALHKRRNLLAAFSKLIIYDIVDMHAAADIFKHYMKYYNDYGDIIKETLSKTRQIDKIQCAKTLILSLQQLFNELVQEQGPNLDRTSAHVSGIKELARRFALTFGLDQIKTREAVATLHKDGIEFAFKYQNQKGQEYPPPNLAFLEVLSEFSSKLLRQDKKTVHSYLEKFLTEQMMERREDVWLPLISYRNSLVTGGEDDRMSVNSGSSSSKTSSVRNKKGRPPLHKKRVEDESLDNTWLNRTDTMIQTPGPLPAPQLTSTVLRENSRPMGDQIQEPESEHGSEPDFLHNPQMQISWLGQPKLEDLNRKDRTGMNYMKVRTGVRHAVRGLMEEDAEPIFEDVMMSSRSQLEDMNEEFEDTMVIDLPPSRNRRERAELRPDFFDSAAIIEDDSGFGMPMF
The description is as above.

These are yes or no findings as the source states them, for the method shown. In cells and extracts the contact can be indirect. Some binding calls cover weakened binding; strength is not graded here. Where a sequence is shown, tags or fusion partners need not be part of it.

With CHD6 (from UniProt Q8TD26 1-2715), the binding entry is “binds weakly” in test [1] and “binds” in test [2].
For FANCI (from UniProt Q9NVI1 1-1328), in test [2], the binding result is “binds”.
Same read-out and setting: in the case of SSRP1 (from UniProt Q08945 1-709) it was “binds”.

B1: FTSJ3 (protein, UniProt Q8IY81 1-847)
chain: MGKKGKVGKSRRDKFYHLAKETGYRSRSAFKLIQLNRRFQFLQKARALLDLCAAPGGWLQVAAKFMPVSSLIVGVDLVPIKPLPNVVTLQQDITTERCRQALRKELKTWKVDVVLNDGAPNVGASWVHDAYSQAHLTLMALRLACDFLARGGSFITKVFRSRDYQPLLWIFQQLFRRVQATKPQASRHESAEIFVVCQGFLAPDKVDSKFFDPKFAFKEVEVQAKTVTELVTKKKPKAEGYAEGDLTLYHRTSVTDFLRAANPVDFLSKASEIMVDDEELAQHPATTEDIRVCCQDIRVLGRKELRSLLNWRTKLRRYVAKKLKEQAKALDISLSSGEEDEGDEEDSTAGTTKQPSKEEEEEEEEEQLNQTLAEMKAQEVAELKRKKKKLLREQRKQRERVELKMDLPGVSIADEGETGMFSLSTIRGHQLLEEVTQGDMSAADTFLSDLPRDDIYVSDVEDDGDDTSLDSDLDPEELAGVRGHQGLRDQKRMRLTEVQDDKEEEEEENPLLVPLEEKAVLQEEQANLWFSKGSFAGIEDDADEALEISQAQLLFENRRKGRQQQQKQQLPQTPPSCLKTEIMSPLYQDEAPKGTEASSGTEAATGLEGEEKDGISDSDSSTSSEEEESWEPLRGKKRSRGPKSDDDGFEIVPIEDPAKHRILDPEGLALGAVIASSKKAKRDLIDNSFNRYTFNEDEGELPEWFVQEEKQHRIRQLPVGKKEVEHYRKRWREINARPIKKVAEAKARKKRRMLKRLEQTRKKAEAVVNTVDISEREKVAQLRSLYKKAGLGKEKRHVTYVVAKKGVGRKVRRPAGVRGHFKVVDSRMKKDQRAQQRKEQKKKHKRK
Consider B1, for which the binding entry in test [2] is “binds”.

B2: ESYT2 (protein, UniProt A0FGR8 1-921)
chain: MTANRDAALSSHRHPGCAQRPRTPTFASSSQRRSAFGFDDGNFPGLGERSHAPGSRLGARRRAKTARGLRGHRQRGAGAGLSRPGSARAPSPPRPGGPENPGGVLSVELPGLLAQLARSFALLLPVYALGYLGLSFSWVLLALALLAWCRRSRGLKALRLCRALALLEDEERVVRLGVRACDLPAWVHFPDTERAEWLNKTVKHMWPFICQFIEKLFRETIEPAVRGANTHLSTFSFTKVDVGQQPLRINGVKVYTENVDKRQIILDLQISFVGNCEIDLEIKRYFCRAGVKSIQIHGTMRVILEPLIGDMPLVGALSIFFLRKPLLEINWTGLTNLLDVPGLNGLSDTIILDIISNYLVLPNRITVPLVSEVQIAQLRFPVPKGVLRIHFIEAQDLQGKDTYLKGLVKGKSDPYGIIRVGNQIFQSRVIKENLSPKWNEVYEALVYEHPGQELEIELFDEDPDKDDFLGSLMIDLIEVEKERLLDEWFTLDEVPKGKLHLRLEWLTLMPNASNLDKVLTDIKADKDQANDGLSSALLILYLDSARNLPSGKKISSNPNPVVQMSVGHKAQESKIRYKTNEPVWEENFTFFIHNPKRQDLEVEVRDEQHQCSLGNLKVPLSQLLTSEDMTVSQRFQLSNSGPNSTIKMKIALRVLHLEKRERPPDHQHSAQVKRPSVSKEGRKTSIKSHMSGSPGPGGSNTAPSTPVIGGSDKPGMEEKAQPPEAGPQGLHDLGRSSSSLLASPGHISVKEPTPSIASDISLPIATQELRQRLRQLENGTTLGQSPLGQIQLTIRHSSQRNKLIVVVHACRNLIAFSEDGSDPYVRMYLLPDKRRSGRRKTHVSKKTLNPVFDQSFDFSVSLPEVQRRTLDVAVKNSGGFLSKDKGLLGKVLVALASEELAKGWTQWYDLTEDGTRPQAMT
With B2, in test [2], the binding entry is on record as “binds”.

B3: MCM3 (protein, UniProt P25205 1-808)
chain: MAGTVVLDDVELREAQRDYLDFLDDEEDQGIYQSKVRELISDNQYRLIVNVNDLRRKNEKRANRLLNNAFEELVAFQRALKDFVASIDATYAKQYEEFYVGLEGSFGSKHVSPRTLTSCFLSCVVCVEGIVTKCSLVRPKVVRSVHYCPATKKTIERRYSDLTTLVAFPSSSVYPTKDEENNPLETEYGLSVYKDHQTITIQEMPEKAPAGQLPRSVDVILDDDLVDKAKPGDRVQVVGTYRCLPGKKGGYTSGTFRTVLIACNVKQMSKDAQPSFSAEDIAKIKKFSKTRSKDIFDQLAKSLAPSIHGHDYVKKAILCLLLGGVERDLENGSHIRGDINILLIGDPSVAKSQLLRYVLCTAPRAIPTTGRGSSGVGLTAAVTTDQETGERRLEAGAMVLADRGVVCIDEFDKMSDMDRTAIHEVMEQGRVTIAKAGIHARLNARCSVLAAANPVYGRYDQYKTPMENIGLQDSLLSRFDLLFIMLDQMDPEQDREISDHVLRMHRYRAPGEQDGDAMPLGSAVDILATDDPNFSQEDQQDTQIYEKHDNLLHGTKKKKEKMVSAAFMKKYIHVAKIIKPVLTQESATYIAEEYSRLRSQDSMSSDTARTSPVTARTLETLIRLATAHAKARMSKTVDLQDAEEAVELVQYAYFKKVLEKEKKRKKRSEDESETEDEEEKSQEDQEQKRKRRKTRQPDAKDGDSYDPYDFSDTEEEMPQVHTPKTADSQETKESQKVELSESRLKAFKVALLDVFREAHAQSIGMNRLTESINRDSEEPFSSVEIQAALSKMQDDNQVMVSEGIIFLI
Turning to B3, the values for the binding entry in test [1] and in test [2] were “binds weakly” and “binds”, respectively.
